The source of these data is publication PMC6042963.

The chains behind the UniProt entries cited, without tags or fusion partners.
UniProt Q8VEK2: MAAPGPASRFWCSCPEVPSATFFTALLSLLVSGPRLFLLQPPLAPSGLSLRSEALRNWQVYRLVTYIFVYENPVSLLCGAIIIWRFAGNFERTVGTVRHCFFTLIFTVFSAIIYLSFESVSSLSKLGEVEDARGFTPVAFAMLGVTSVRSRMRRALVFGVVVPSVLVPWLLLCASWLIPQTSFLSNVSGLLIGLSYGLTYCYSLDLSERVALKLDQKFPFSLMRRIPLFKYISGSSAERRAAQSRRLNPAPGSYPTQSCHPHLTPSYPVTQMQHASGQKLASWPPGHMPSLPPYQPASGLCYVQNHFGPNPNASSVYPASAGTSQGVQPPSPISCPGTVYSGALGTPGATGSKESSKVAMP
UniProt Q9Y3P4: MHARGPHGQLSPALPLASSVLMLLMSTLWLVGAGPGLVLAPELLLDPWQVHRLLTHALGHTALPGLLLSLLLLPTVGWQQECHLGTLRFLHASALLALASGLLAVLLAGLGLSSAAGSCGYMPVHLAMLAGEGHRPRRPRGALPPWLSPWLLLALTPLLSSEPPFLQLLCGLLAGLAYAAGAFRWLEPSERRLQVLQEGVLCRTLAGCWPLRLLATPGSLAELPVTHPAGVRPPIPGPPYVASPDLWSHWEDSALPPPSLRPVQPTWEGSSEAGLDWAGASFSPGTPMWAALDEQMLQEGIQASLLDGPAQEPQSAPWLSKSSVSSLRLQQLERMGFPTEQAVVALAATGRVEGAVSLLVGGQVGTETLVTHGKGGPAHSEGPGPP

No constants are given. Whether binding was seen depends on the method and setting. In cells and extracts the contact can be indirect. Here binding means that the protein was enriched with, or labelled near, the bait; the list need not be complete. For part of these data: No binding means not detected with the bait. For part of these data: Where a sequence is shown, tags or fusion partners need not be part of it.

Holding throughout (assay): affinity purification with mass spectrometry; anti-HA immunoprecipitates from HEK 293ET lines stably expressing HA-tagged rhomboid-like proteins, cells untreated or treated with the crosslinker DSP (0.2 mg/mL); LC-MS/MS
In assay [1] the target is T1, HA-tagged cytoplasmic N-terminus of human iRhom1 (amino acids 1-404) (human) (UniProt Q96CC6).
T1 sequence: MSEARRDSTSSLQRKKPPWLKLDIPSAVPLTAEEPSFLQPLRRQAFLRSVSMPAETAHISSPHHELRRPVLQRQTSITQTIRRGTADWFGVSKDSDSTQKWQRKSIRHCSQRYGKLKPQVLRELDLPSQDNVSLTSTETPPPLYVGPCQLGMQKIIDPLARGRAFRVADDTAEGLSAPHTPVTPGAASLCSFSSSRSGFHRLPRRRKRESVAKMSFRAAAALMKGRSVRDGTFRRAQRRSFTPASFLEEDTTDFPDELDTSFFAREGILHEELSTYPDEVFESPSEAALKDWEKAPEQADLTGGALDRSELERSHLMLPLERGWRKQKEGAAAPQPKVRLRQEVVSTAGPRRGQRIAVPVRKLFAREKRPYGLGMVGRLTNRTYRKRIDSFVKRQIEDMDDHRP

For assay [2], the target named is HA-tagged mouse Rhbdd2 (mouse) (UniProt Q8VEK2).
The target in assay [3] is T2, HA-tagged full-length human iRhom1 (human) (UniProt Q96CC6).
T2 sequence: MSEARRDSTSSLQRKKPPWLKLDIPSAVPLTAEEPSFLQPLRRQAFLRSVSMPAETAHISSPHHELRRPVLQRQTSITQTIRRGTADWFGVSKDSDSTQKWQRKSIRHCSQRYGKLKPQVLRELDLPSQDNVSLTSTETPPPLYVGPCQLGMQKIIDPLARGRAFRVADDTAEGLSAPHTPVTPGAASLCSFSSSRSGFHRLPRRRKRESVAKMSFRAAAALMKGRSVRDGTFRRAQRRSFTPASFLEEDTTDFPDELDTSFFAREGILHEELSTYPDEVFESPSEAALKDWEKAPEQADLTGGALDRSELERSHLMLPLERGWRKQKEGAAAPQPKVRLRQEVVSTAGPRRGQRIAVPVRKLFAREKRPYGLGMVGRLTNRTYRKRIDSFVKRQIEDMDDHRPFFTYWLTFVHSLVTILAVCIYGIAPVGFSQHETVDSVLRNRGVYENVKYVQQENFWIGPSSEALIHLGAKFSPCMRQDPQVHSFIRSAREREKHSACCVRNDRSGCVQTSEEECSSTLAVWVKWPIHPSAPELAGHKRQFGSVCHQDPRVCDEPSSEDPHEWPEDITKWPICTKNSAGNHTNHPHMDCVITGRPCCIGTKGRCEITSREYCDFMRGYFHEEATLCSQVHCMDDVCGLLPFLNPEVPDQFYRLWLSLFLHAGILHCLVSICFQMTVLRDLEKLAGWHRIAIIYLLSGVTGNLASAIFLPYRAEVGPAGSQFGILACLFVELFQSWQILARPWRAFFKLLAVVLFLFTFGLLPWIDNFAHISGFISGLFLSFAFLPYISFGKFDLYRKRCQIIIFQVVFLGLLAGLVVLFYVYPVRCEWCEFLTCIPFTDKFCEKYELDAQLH

In assay [4] the target is T3, HA-tagged full-length mouse iRhom2 (mouse) (UniProt Q80WQ6).
T3 sequence: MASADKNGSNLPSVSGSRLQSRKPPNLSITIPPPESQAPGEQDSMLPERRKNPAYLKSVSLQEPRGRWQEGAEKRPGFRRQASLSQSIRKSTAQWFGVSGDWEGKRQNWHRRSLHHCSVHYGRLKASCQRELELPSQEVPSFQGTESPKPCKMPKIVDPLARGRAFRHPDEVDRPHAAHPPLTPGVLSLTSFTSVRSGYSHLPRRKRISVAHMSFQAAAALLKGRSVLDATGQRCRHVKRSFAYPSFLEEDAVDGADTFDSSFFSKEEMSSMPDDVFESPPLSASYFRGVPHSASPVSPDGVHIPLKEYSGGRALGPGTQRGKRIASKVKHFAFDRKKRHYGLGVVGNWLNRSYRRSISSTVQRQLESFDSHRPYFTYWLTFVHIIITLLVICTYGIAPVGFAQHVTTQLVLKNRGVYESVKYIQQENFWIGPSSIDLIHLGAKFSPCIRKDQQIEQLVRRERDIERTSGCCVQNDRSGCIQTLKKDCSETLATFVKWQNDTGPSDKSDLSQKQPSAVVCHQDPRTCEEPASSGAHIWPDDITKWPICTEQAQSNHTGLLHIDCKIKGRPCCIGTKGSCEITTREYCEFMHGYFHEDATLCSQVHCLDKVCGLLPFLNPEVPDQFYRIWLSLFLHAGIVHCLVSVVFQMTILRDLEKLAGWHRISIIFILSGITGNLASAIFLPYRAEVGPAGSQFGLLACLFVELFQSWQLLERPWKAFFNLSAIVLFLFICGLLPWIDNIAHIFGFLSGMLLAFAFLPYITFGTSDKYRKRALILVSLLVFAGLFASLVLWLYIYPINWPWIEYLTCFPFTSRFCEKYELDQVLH

The target of assay [5] is T4, HA-tagged mouse Ubac2 (mouse) (UniProt Q8R1K1).
T4 sequence: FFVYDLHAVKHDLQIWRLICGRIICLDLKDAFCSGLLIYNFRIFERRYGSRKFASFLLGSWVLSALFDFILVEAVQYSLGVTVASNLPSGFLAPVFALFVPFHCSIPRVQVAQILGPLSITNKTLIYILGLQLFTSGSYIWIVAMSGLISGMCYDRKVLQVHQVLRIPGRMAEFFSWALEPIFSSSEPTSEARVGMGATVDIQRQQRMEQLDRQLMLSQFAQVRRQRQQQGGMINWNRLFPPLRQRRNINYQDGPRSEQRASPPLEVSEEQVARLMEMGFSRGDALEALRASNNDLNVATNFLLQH

For assay [6], the target named is HA-tagged human RHBDD3 (human) (UniProt Q9Y3P4).

B1: endogenous FRMD8 (FERM Domain-containing protein 8), named iTAP (iRhom Tail-Associated Protein) (protein, UniProt Q9BZ67 1-464)
chain: MDGTEGSAGQPGPAERSHRSSVSSVGARAADVLVYLADDTVVPLAVENLPSLSAHELHRAVREVLQLPDIALDVFALWLVSPLLEVQLKPKHQPYKLGRQWPELLLRFTSAPDDDVAMDEPFLQFRRNVFFPKRRELQIHDEEVLRLLYEEAKGNVLAARYPCDVEDCEALGALVCRVQLGPYQPGRPAACDLREKLDSFLPAHLCKRGQSLFAALRGRGARAGPGEQGLLNAYRQVQEVSSDGGCEAALGTHYRAYLLKCHELPFYGCAFFHGEVDKPAQGFLHRGGRKPVSVAISLEGVHVIDSREKHVLLGLRFQELSWDHTSPEEEEPILWLEFDGDSEGTPVNKLLKIYSKQAELMSSLIEYCIELSQAAEPAGPQDSATGSPSDPSSSLAPVQRPKLRRQGSVVSSRIQHLSTIDYVEDGKGIRRVKPKRTTSFFSRQLSLGQGSYTVVQPGDSLEQG
In the case of B1, the binding result was “binds” in assay [1]; “no binding” in assay [2]; “binds” in assay [3]; “binds” in assay [4]; “no binding” in assay [5]; “no binding” in assay [6].
